Counter-ions that a name gives are not always drawn. For at least one compound, name, drawing or mass did not settle the structure.
Test system: DNA polymerase
Experiment: Primer extension reaction with XNTPs as substrates (additive screen and MGB titration), gel electrophoresis of Xpandomer products
Type: biochemical
Text: However, initial transcription of the sequence of the natural DNA template onto the measurable Xpandomer relies on the ability of DNA polymerase to utilize XNTPs as substrates (the generalized structure of an XNTP is discussed herein with reference to FIG. 1A and FIG. 2). […] In an effort to improve the efficiency and accuracy of XNTP polymerization into Xpandomers, a wide variety of additives was screened for the ability to enhance DNA polymerase primer extension reactions using XNTPs as substrates.
A typical primer extension reaction includes the following reagents: 2 pmol primer, 2.2 pmol 45 mer oligonucleotide template, 50 pmol of each XNTP (XATP, XCTP, XGTP, and XTTP), 50 mM Tris HCl, pH 6.79, 200 mM NaCl, 20% PEG, 5% NMS, 0.5 nmol polyphosphate 60.19, 0.3 mM MnCl2, and 0.6 μg of purified recombinant DNA polymerase protein. Reactions are run for 1 hr at 23° C. Reaction products (i.e. constrained Xpandomers) are treated to cleave the phosphoramidate bonds, thereby generating linearized Xpandomers. Reaction products are analyzed using gel electrophoresis on 4-12% acrylamide gels to resolve and visualize Xpandomer products of different lengths. For the additive screen, reaction additives were typically tested in the micro to millimolar range. […]

## N=C(N)c1ccc(-c2ccc(-c3ccc(C(=N)N)cc3)o2)cc1 [Furamidine HCl, reference compound]
FIG. 4 representative gel
  effect on XNTP polymerization reaction, gel of FIG. 4 (extension product length vs no-additive lane 1, around 14 XNTPs): inhibitory effect
Additive screen, primer extension with XNTPs, 1 hr at 23° C., additives typically tested in the micro to millimolar range
  Extension Effect: Inhibitory
